Paper PMC10163288
This is one part of the list.

B1: il2ra_site1_1z92_normal_mot_b1fbee8209167eaadba3689d49187f1a_0001_1_af2_000000018_0001_16_31_H_._ca9eff2b9947dfa32b90907aa01746fa_0001_af2_0001_0000200014_00000 … (protein)
chain: DESELRDLRRAEELGIPPEQAVRAVIRAIARIDRVPPEEAAEILLQILEKLGDPELAEIAEELTP
B2: il2ra_site2_3nfp_sap_20_mot_ems_3hM_1278_af2_000000151_0001_43_60_H_._HHH_b1_03616_0001_0000200017_0000001_0_0001 (protein)
chain: SSSSSSDEEEVEELLEEAKKIEDERERLEVFAEAVQIAFESRNSELFFRIAEVAYELLSSSSSSS
B3: il2ra_site1_3nfp_sap_16_mot_HHH_b1_03236_000000173_0001_17_33_H_._HHH_b1_01532_0001_0000300008_0000001_0_0001_af2pred_0001_af2pred (protein)
chain: SSSSDVHEEARRLSRRIKELIHEGDHEEARELLEELEELARELGDPIAKILVERLERRIDSSSSS
B4: il2ra_site2_2erj_normal_mot_HHH_b2_00789_000000198_0001_40_54_H_._HHH_b1_02336_0001_0000200015_0000001_0 (protein)
chain: SSSSTESAEEALELAEEEAEELLEEGDEERARSLLRLALRYLKLSGDEEILERLEEFLRRISSSS
B5: il2ra_site2_3nfp_normal_mot_HHH_b1_03376_000000004_0001_41_55_H_._HHH_b1_01973_0001_0000500054_0000001_0 (protein)
chain: SSSSDEEVRELLEEARRLLEEGNPEEARKLVARAAHLAFQAGDSRLFFEVAELLFEIYQLGSSSS
B6: il2ra_site1_3nfp_normal_mot_HHH_b1_07560_af2_000000209_0001_40_57_H_._HHH_b1_08318_0001_0000100001_0000001_0_af2pred_0001_af2pred_1_swapped (protein)
chain: SSSSSDIAKEATERAKEHAQEAYENGDPEAAKKSLEKLERDLKAANNPELLREVEELLEELSSSS
B7: il2ra_site1_3nfp_normal_mot_HHH_b1_03481_000000088_0001_17_33_H_._8e6453a357ce3577210587ee391b8721_0001_0001_0000300022_0000001_0 (protein)
chain: GPKIVERLAEQLGVPPEVIELIKRVLEKLEKHPENRELHELLNEIAEALARGDIELVEELVEEAH
B8: il2ra_site2_2erj_sap_32_mot_104c758fc23488854646035ccb2100c6_0001_000000266_0001_15_30_H_._HHH_b2_03308_0001_0000700027_0000001_0_0001_af2pred_0001_1_af2pred_sw … (protein)
chain: SSSSSDEEEAREVVERLVEEFGLSEADKRLLELFAEFALEAGLSEEEIEKLLERIARLAGSSSSS
B9: il2ra_site2_3nfp_normal_mot_HHH_b1_05437_000000005_0001_40_57_H_._HHH_b2_01829_0001_0000100016_0000001_0 (protein)
chain: SSSSSDEEEEEVKELLEEAKRIEDEEEARRLLAEASQIAYENRDFELFFLVAEVLFKLEQSSSSS
B10: il2ra_site1_2b5i_normal_mot_HHH_b2_07442_af2_000000069_0001_1_16_H_._HHH_b1_01339_af2_0001_0000200021_0000001_0_af2pred_0001_af2pred (protein)
chain: SSSSDEEFERVLELYREASELFRQGNKEEAQELLEEALRLAEEAGDPNAKRDVRFMLELLNSSSS
B11: il2ra_site2_3nfp_sap_23_mot_HHH_b1_04032_000000208_0001_43_56_H_._HHH_b2_04216_0001_0000100001_0000001_0_0001 (protein)
chain: SSSSDKAEEYLRAAIAAAERAIEQGDPEVARSILEIAKLAAESRNDEELLERIQELLEEISSSSS
B12: il2ra_site1_3nfp_sap_14_mot_119b7766384adbe86006a62bce89dba1_0001_af2_000000052_0001_18_32_H_._HHH_b2_03369_0001_0000100001_0000001_0_0001_af2pred_0001_1_af2pre … (protein)
chain: SSDEYFERQVKRVQELAEEKNDEEVRELAEEALELFERAREEKDSEKAHEAIKIVARLQLLVSSS
B13: il2ra_site1_3nfp_normal_mot_HHH_b1_07180_af2_000000260_0001_1_19_H_._HHH_b1_03230_af2_0001_0000300012_0000001_1_af2pred_0001_af2pred_1 (protein)
chain: SSSSDEEERLLEEAQEELKRLLEEGDPKEASKLAEEVIRELRKLGNRELVEELLEFALRSSSSSS
B14: il2ra_site2_3nfp_sap_17_mot_HHH_b1_05627_af2_000000038_0001_43_56_H_._HHH_b1_00869_af2_0001_0000100004_0000001_0_0001 (protein)
chain: SSSSSEAEEYVKAALALLRRAIEEGDEEAAEKLIEMLRLAIESQENPELREELEELEKALDSSSS
B15: il2ra_site2_2erj_sap_18_mot_HHH_b1_02757_000000121_0001_41_57_H_._HHH_b1_07850_0001_0000400009_0000001_0_0001 (protein)
chain: SSSSDVEEEVRRLLEEAEEAYEEGDLHEVYRLLNEALRLASENQDPELIELVHKVAEEMSSSSSS
B16: il2ra_site2_2erj_normal_mot_2e60acbd11533cd3bad2fa8ba2aa37e0_0001_af2_000000288_0001_35_49_H_._HHH_b1_06043_0001_0000600028_0000001_0 (protein)
chain: SSSSDSEEVFEEAREELEELLKEGNIEEAFKVLVEAAMRLLRLGNFELAERLLEIAQELASSSSS
B17: il2ra_site1_1z92_normal_mot_203a44625a3a2ba431098544127a80a6_0001_af2_000000214_0001_15_33_H_._HHH_b1_04183_0001_0000200013_0000001_0_af2pred_0001_af2pred (protein)
chain: SSSSSSEEKFARQAVRVLVELAGLSEEQKEELEELAEELVRRGLDPLEIAQLLAELAIRLSSSSS
B18: il2ra_site1_1z92_sap_12_mot_HHH_b1_02997_af2_000000005_0001_39_52_H_._HHH_b2_00881_af2_0001_0000100007_0000001_0_0001_af2pred_0001_af2pred_swapped (protein)
chain: SSSSDLEELAREIVEEIVKELGLSEEERRALEYAAEVAVRAGFSEKSIRIALQRAAERSLSSSSS

The binders below were run against il2ra, P01589 (assay: yeast display titration).

Apparent Kd, inactive:
B1 no binding seen
B2 no binding seen
B3 no binding seen
B4 no binding seen
B5 no binding seen
B6 no binding seen
B7 no binding seen
B8 no binding seen
B9 no binding seen
B10 no binding seen
B11 no binding seen
B12 no binding seen
B13 no binding seen
B14 no binding seen
B15 no binding seen
B16 no binding seen
B17 no binding seen
B18 no binding seen

Three neighbouring entries from above, for reference:
Apparent Kd, inactive:
B13 no binding seen
B14 no binding seen
B15 no binding seen
